Laboratory results from US10758467B2, “Highly substantive water-soluble UV absorbers and process for preparation thereof” (GALAXY SURFACTANTS LTD., priority 2018, dated 2020).

Experiment: Substantivity to hair through rinse-off conditioner formulation (deposition on hair, re-extracted and quantified by UV spectroscopy)
Settings: for Relative Substantivity: rinse-off conditioner with equimolar quantities (0.0015 gmoles) of UV absorber, 1.5 g hair tress, extracted by hot ethanol, UV spectroscopy; for deposition on hair: rinse-off conditioner, UV spectroscopic analysis

Row | Structure (SMILES) | Relative Substantivity | deposition on hair
1 | CCCCCCCCCCCCCCCCCC[N+](C)(C)CC(O)C[N+](C)(C)CCCNC(=O)/C=C/c1ccc(OC)cc1 (stereo not shown) [Example 4, p-methoxy cinnamidopropyl (2-hydroxypropyl stearyl dimethyl ammonium chloride) dimonium chloride] | 1.50 Mg/1.5 g of hair | 1.5 mg/1.5 g of hair
2 | C[N+](C)(C)CCCNC(=O)/C=C/c1ccccc1 [Incroquat UV 283, cinnamidopropyl trimethyl ammonium chloride, reference compound] | 0.6 Mg/1.5 g of hair | 0.65 mg/1.5 g of hair
3 | COc1ccc(/C=C/C(=O)NCCC[N+](C)(C)CC(O)CS(=O)(=O)[O-])cc1 (stereo not shown) [Galaxy SunBeat, 3-(N-p-methoxycinnamidopropyl-N,N-dimethylammonium)-2-hydroxypropane-1-sulphonate, reference compound] | 0.75 Mg/1.5 g of hair | –
4 | COc1ccc(C=CC(=O)NCCC[N+](C)(C)C)cc1.[Cl-] [Example 6, p-methoxy cinnamidopropyl trimethyl ammonium chloride] | 0.65 Mg/1.5 g of hair | 0.65 mg/1.5 g of hair
